Among the data in article PMC2726291, “Sus1, Cdc31, and the Sac3 CID Region Form a Conserved Interaction Platform that Promotes Nuclear Pore Association and mRNA Export” (Molecular Cell, 2009) are binding values, retold here.

Amino acid sequences for entries named in this document (tags omitted). A change or cut given only in a name is not applied to a line headed by its entry.
UniProt P46674: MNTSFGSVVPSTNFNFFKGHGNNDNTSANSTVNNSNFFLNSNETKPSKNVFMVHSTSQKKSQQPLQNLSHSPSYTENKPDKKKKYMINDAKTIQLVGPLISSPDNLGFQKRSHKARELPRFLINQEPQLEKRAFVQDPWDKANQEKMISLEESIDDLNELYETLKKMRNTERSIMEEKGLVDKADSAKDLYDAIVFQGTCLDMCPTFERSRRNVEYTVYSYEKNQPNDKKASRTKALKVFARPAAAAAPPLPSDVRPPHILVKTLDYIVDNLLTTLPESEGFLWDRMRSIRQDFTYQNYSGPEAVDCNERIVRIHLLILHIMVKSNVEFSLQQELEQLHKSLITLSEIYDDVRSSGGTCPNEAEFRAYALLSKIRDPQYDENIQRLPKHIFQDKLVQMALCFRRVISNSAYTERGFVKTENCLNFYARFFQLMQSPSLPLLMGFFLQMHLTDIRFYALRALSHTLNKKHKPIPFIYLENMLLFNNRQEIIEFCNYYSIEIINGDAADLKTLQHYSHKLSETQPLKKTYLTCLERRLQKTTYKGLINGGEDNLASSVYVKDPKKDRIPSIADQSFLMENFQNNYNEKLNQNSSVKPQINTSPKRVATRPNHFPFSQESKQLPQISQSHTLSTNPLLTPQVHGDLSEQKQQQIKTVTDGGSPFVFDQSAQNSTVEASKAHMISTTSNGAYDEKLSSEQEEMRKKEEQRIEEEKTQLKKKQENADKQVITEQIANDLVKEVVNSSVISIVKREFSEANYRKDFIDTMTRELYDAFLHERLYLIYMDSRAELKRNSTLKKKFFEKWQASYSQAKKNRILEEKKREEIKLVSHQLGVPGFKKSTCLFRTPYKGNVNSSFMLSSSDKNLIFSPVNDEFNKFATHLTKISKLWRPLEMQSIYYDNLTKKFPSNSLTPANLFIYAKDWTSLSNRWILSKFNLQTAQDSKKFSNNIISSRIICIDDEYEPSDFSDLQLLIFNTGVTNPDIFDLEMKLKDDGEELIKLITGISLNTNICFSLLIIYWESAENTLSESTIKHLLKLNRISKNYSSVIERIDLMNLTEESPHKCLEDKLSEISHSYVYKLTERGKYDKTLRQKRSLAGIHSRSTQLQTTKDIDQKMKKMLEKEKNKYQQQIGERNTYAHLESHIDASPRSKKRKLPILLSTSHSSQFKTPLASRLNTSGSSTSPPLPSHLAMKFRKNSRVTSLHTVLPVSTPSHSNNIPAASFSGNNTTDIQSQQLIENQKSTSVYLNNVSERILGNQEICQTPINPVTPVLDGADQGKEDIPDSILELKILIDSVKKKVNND

The target of the assay is Protein A-tagged Sac3ΔC (Δ795–813) (yeast) (UniProt P46674). Briefly: co-IP; split-tag purification from sac3Δ THP1-GST SUS1-MYC yeast: Protein A-tagged Sac3 or mutants on IgG Sepharose, TEV cleavage, then GSH Sepharose (Thp1-GST), glutathione elution; Coomassie and western blot with anti-GST, anti-myc, anti-Cdc31. (In general: A western blot detects proteins with antibodies after separation by electrophoresis.)

These are yes or no findings as the source states them, for the method shown. In cells and extracts the contact can be indirect. A result given as binding can be weak or reduced; the word gives no strength. Where a sequence is shown, tags or fusion partners need not be part of it.

B1: Cdc31 (recombinant, untagged, full length) (natural protein, yeast, UniProt P06704 1-161, looked up)
chain: MSKNRSSLQSGPLNSELLEEQKQEIYEAFSLFDMNNDGFLDYHELKVAMKALGFELPKREILDLIDEYDSEGRHLMKYDDFYIVMGEKILKRDPLDEIKRAFQLFDDDHTGKISIKNLRRVAKELGETLTDEELRAMIEEFDLDGDGEINENEFIAICTDS
notes: Cdc31, yeast, full length, cloned into pET30a and called untagged; the model holds residues 9–161; source: E. coli BL21(DE3) CodonPlus RIL, coexpressed with GST-Sac3 fragments, purified as a complex
B1: the binding result was “no binding”.

B2: Sus1 (recombinant, untagged, full length) (natural protein, yeast, UniProt Q6WNK7 1-96, looked up)
chain: MTMDTAQLKSQIQQYLVESGNYELISNELKARLLQEGWVDKVKDLTKSEMNINESTNFTQILSTVEPKALEMVSDSTRETVLKQIREFLEEIVDTQ
notes: Sus1, yeast, full length; the model holds residues 6–95; also called Sus1A; Sus1B; source: E. coli BL21(DE3) CodonPlus RIL, untagged vector pOPT, purified as a complex with Sac3 fragment and Cdc31
Turning to B2, the binding entry is “binds”.
